These are yes or no findings as the source states them, for the method shown. For some assays here: A result given as binding can be weak or reduced; the word gives no strength.
How the values were obtained:
[1] = biological target: T1, paratox (Prx) from S. pyogenes MGAS315 (Streptococcus pyogenes MGAS315 (prophage)) (UniProt Q4VUT1); experiment: pull-down; Prx (with a His-tag) on Ni-NTA resin as bait, purified ComR ortholog (no His-tag) added; 20 mM Tris-HCl pH 7.5, 100 mM NaCl, 1 mM β-ME, 4 °C; SDS-PAGE; both purified
T1 sequence: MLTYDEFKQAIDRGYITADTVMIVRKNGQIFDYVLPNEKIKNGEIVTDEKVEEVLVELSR

[2] = biological target: ComR S. mutans, full length (Streptococcus mutans); experiment: SEC-SAXS; ComR, ComR:Prx and Prx at 9 mg/ml; 20 mM Tris-HCl pH 7.5, 100 mM NaCl, 1 mM β-ME; both purified
[3] = biological target: ComR S. mutans DNA-binding domain (DBD) construct (Streptococcus mutans); experiment: SEC; proteins incubated on ice 15 min at 1:1.5 molar ratio ComR:Prx (higher ratio of DBD); Superdex 75; 20 mM Tris-HCl pH 7.5, 100 mM NaCl, 1 mM β-ME; fractions on SDS-PAGE; both purified
[4] = biological target: ComR S. mutans TPR domain construct (Streptococcus mutans); experiment: as above
[5] = biological target: ComR S. mutans, full length (Streptococcus mutans); experiment: as above
[6] = biological target: ComR S. pyogenes MGAS5005 (Streptococcus pyogenes MGAS5005); experiment: as above
[7] = biological target: ComR S. suis (Streptococcus suis); experiment: as above
[8] = biological target: ComR S. thermophilus (Streptococcus thermophilus); experiment: as above
[9] = biological target: Rgg3 S. pyogenes (Streptococcus pyogenes); experiment: as above
[10] = biological target: ComR S. mutans DNA-binding domain (DBD) construct (Streptococcus mutans); experiment: crystal structure; DBD:Prx complex isolated by SEC and crystallised (PDB 7N10); also crystals after in situ α-chymotrypsin digestion of the ComR:Prx complex (PDB 7N1N); 4 °C; both purified
[11] = biological target: ComR S. mutans, full length (Streptococcus mutans); experiment: other fluorescence titration; competition: 0.2 μM dansyl-XIP, 0.5 μM ComR and increasing unlabeled XIP or Prx, 1 h, room temperature; 20 mM HEPES pH 7.5, 100 mM NaCl, 1 mM β-ME; dansyl emission intensity; both purified

ComR S. mutans, full length (Streptococcus mutans) (receptor)
binding [1]: binds

ComR S. thermophilus (Streptococcus thermophilus) (receptor)
binding [1]: binds

ComR S. pyogenes MGAS5005 (Streptococcus pyogenes MGAS5005) (receptor)
binding [1]: binds

ComR S. suis (Streptococcus suis) (receptor)
binding [1]: binds

B1: paratox (Prx) from S. pyogenes MGAS315 (protein, UniProt Q4VUT1 1-60)
chain: MLTYDEFKQAIDRGYITADTVMIVRKNGQIFDYVLPNEKIKNGEIVTDEKVEEVLVELSR
binding [2]: binds | binding [3]: binds | binding [4]: no binding | binding [5]: binds | binding [6]: binds | binding [7]: binds | binding [8]: binds | binding [9]: no binding | binding [10]: binds

GLDWWSL [unlabeled S. mutans XIP (GLDWWSL)]
binding [11]: binds

— article PMC8383118
